According to article doi:10.1101/2020.01.03.892703:

T1: biotin-tagged XPF (mouse (endogenous knock-in in MEFs)) (UniProt Q9QZD4)
T1 sequence (chain, biotin on the 15 aa tag (by the BirA ligase in vivo)): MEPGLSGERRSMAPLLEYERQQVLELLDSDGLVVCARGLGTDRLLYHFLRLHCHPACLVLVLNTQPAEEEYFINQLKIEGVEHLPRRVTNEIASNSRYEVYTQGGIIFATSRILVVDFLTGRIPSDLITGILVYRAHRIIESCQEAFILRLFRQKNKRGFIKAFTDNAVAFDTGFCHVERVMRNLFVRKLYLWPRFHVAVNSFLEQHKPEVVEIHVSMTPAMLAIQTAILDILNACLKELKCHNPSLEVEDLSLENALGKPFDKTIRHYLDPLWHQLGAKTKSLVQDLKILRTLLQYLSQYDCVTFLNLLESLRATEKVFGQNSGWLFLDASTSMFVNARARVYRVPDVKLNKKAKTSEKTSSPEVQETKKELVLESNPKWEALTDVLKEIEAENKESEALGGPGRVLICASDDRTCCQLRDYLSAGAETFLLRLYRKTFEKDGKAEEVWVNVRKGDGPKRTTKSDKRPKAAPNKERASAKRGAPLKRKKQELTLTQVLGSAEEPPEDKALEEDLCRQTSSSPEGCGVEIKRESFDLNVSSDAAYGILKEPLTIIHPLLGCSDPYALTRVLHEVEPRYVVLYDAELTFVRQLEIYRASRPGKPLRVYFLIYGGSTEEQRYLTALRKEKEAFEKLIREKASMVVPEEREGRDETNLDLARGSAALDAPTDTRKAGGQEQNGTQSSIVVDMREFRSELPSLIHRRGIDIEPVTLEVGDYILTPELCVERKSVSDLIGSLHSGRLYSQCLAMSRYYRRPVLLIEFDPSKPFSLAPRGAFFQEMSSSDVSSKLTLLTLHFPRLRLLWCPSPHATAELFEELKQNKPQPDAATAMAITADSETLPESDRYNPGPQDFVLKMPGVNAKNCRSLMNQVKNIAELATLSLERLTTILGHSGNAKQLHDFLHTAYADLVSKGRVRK

B1: CCCTC-binding factor (protein, UniProt Q61164 1-736)
chain: MEGEAVEAIVEESETFIKGKERKTYQRRREGGQEEDACHLPQNQTDGGEVVQDVNSSVQMVMMEQLDPTLLQMKTEVMEGTVAPEAEAAVDDTQIITLQVVNMEEQPINIGELQLVQVPVPVTVPVATTSVEELQGAYENEVSKEGLAESEPMICHTLPLPEGFQVVKVGANGEVETLEQGELPPQEDSSWQKDPDYQPPAKKTKKTKKSKLRYTEEGKDVDVSVYDFEEEQQEGLLSEVNAEKVVGNMKPPKPTKIKKKGVKKTFQCELCSYTCPRRSNLDRHMKSHTDERPHKCHLCGRAFRTVTLLRNHLNTHTGTRPHKCPDCDMAFVTSGELVRHRRYKHTHEKPFKCSMCDYASVEVSKLKRHIRSHTGERPFQCSLCSYASRDTYKLKRHMRTHSGEKPYECYICHARFTQSGTMKMHILQKHTENVAKFHCPHCDTVIARKSDLGVHLRKQHSYIEQGKKCRYCDAVFHERYALIQHQKSHKNEKRFKCDQCDYACRQERHMIMHKRTHTGEKPYACSHCDKTFRQKQLLDMHFKRYHDPNFVPAAFVCSKCGKTFTRRNTMARHADNCAGPDGVEGENGGETKKSKRGRKRKMRSKKEDSSDSEENAEPDLDDNEEEEEPAVEIEPEPEPQPQPPPPPQPVAPAPPPAKKRRGRPPGRTNQPKQNQPTAIIQVEDQNTGAIENIIVEVKKEPDAEPAEGEEEEAQAATTDAPNGDLTPEMILSMMDR
B2: HIST1h1a (protein, UniProt P43275 1-213)
chain: MSETAPVAQAASTATEKPAAAKKTKKPAKAAAPRKKPAGPSVSELIVQAVSSSKERSGVSLAALKKSLAAAGYDVEKNNSRIKLGLKSLVNKGTLVQTKGTGAAGSFKLNKKAESKAITTKVSVKAKASGAAKKPKKTAGAAAKKTVKTPKKPKKPAVSKKTSKSPKKPKVVKAKKVAKSPAKAKAVKPKASKAKVTKPKTPAKPKKAAPKKK
B3: SMC1A (protein, UniProt Q9CU62 1-1233)
chain: MGFLKLIEIENFKSYKGRQIIGPFQRFTAIIGPNGSGKSNLMDAISFVLGEKTSNLRVKTLRDLIHGAPVGKPAANRAFVSMVYSEEGAEDRTFARVIVGGSSEYKINNKVVQLHEYSEELEKLGILIKARNFLVFQGAVESIAMKNPKERTALFEEISRSGELAQEYDKRKKEMVKAEEDTQFNYHRKKNIAAERKEAKQEKEEADRYQRLKDEVVRAQVQLQLFKLYHNEVEIEKLNKELASKNKEIEKDKKRMDKVEDELKEKKKELGKMMREQQQIEKEIKEKDSELNQKRPQYIKAKENTSHKIKKLEAAKKSLQNAQKHYKKRKGDMDELEKEMLSVEKARQEFEERMEEESQSQGRDLTLEENQVKKYHRLKEEASKRAATLAQELEKFNRDQKADQDRLDLEERKKVETEAKIKQKLREIEENQKRIEKLEEYITTSKQSLEEQKKLEGELTEEVEMAKRRIDEINKELNQVMEQLGDARIDRQESSRQQRKAEIMESIKRLYPGSVYGRLIDLCQPTQKKYQIAVTKVLGKNMDAIIVDSEKTGRDCIQYIKEQRGEPETFLPLDYLEVKPTDEKLRELKGAKLVIDVIRYEPPHIKKALQYACGNALVCDNVEDARRIAFGGHQRHKTVALDGTLFQKSGVISGGASDLKAKARRWDEKAVDKLKEKKERLTEELKEQMKAKRKEAELRQVQSQAHGLQMRLKYSQSDLEQTKTRHLALNLQEKSKLESELANFGPRINDIKRIIQSREREMKDLKEKMNQVEDEVFEEFCREIGVRNIREFEEEKVKRQNEIAKKRLEFENQKTRLGIQLDFEKNQLKEDQDKVHMWEQTVKKDENEIEKLKKEEQRHMKIIDETMAQLQDLKNQHLAKKSEVNDKNHEMEEIRKKLGGANKEMTHLQKEVTAIETKLEQKRSDRHNLLQACKMQDIKLPLSKGTMDDISQEEGSSQGEESVSGSQRTSSIYAREALIEIDYGDLCEDLKDAQAEEEIKQEMNTLQQKLNEQQSVLQRIAAPNMKAMEKLESVRDKFQETSDEFEAARKRAKKAKQAFEQIKKERFDRFNACFESVATNIDEIYKALSRNSSAQAFLGPENPEEPYLDGINYNCVAPGKRFRPMDNLSGGEKTVAALALLFAIHSYKPAPFFVLDEIDAALDNTNIGKVANYIKEQSTCNFQAIVISLKEEFYTKAESLIGVYPEQGDCVISKVLTFDLTKYPDANPNPNEQ
B4: RBM39 (protein, UniProt Q8VH51 1-530)
chain: MADDIDIEAMLEAPYKKDENKLNSANGHEERSKKRKKSKSRSRSHERKRSKSKERKRSRDRERKKSKSRERKRSRSKERRRSRSRSRDRRFRGRYRSPYSGPKFNSAIRGKIGLPHSIKLSRRRSRSKSPFRKDKSPVREPIDNLTPEERDARTVFCMQLAARIRPRDLEEFFSTVGKVRDVRMISDRNSRRSKGIAYVEFVDVSSVPLAIGLTGQRVLGVPIIVQASQAEKNRAAAMANNLQKGSAGPMRLYVGSLHFNITEDMLRGIFEPFGRIESIQLMMDSETGRSKGYGFITFSDSECAKKALEQLNGFELAGRPMKVGHVTERTDASSASSFLDSDELERTGIDLGTTGRLQLMARLAEGTGLQIPPAAQQALQMSGSLAFGAVAEFSFVIDLQTRLSQQTEASALAAAASVQPLATQCFQLSNMFNPQTEEEVGWDTEIKDDVIEECNKHGGVIHIYVDKNSAQGNVYVKCPSIAAAIAAVNALHGRWFAGKMITAAYVPLPTYHNLFPDSMTATQLLVPSRR
B5: NUP107 (protein, UniProt Q8BH74 1-926)
chain: MDRSGFGGMSSPVIRDAEVTRTARKHSAHKRVLIQANQEDNFGTATPRSQIIPRTPSSFRQPFVTPSSRSLLRHPDISYILGTEGRSPRHTQSSGYLGNLSMVTNLDDSNWAAAFSSQRLGLYTNTEHHSMTEDVNLSTVMLREDDPGEAASMSMFSDFLHSFLKHSSTTVFDLVEEYENICGSQVNILSKIVSRATPGLQKFSKTASMLWLLQQEMVTWRLLASLYRDRIQSSLEEENMFAIAGINASEKMVVETLFQRDSLVRQSQLVVDWLESIAKDEIGEFSDNIEFYAKSVYWENTLHSLKQRQLLSHMGSTRPLVTELDPDAPIRQKLPLDDLDREDEVRLLKYLFTLIRAGMTEEAQRLCKRCGQAWRAATLEGWKLYHDPNVNGGTELEPVEGNPYRRIWKISCWRMAEDELFNKYERAIYAALSGNLKQLLPVCDTWEDTVWAYFRVMVDSLVEQEIRTSVMTQDDSEELPREYMEANWTLEKVFEELQATDKKRVLEENQEHYHIVQKFLILGDVDGLMDEFSKWLSKSGSSLPGHLLRFMTHLILFLRTLGLQTKEEVSIEVLKTYIQLLISEKHTSLIAFYTCHLPQDLAVAQYALFLEGVTEFEQRHQCLELAKEADLDVATITKTVVENICKKDNGEFSHHDLAPSLDTGTTEEDRLKIDVIDWLVFDPAQRAEALRQGNAIMRKFLALKKHEAAKEVFVKIPQDSIAEIYNQWEEQGMESPLPAEDDNAIREHLCIRAYLEAHETFNEWFKHMNSAPQKPTLLSQATFTEKVAYEHREKKYEMDHNIWKGHLDALTADVKEKMYNVLLFVDGGWMVDVREDAEDDPERTHQMVLLRKLCLPMLCFLLHTILHSTGQYQECLQLADMVSSERHKLYLVFSKEELRKLLQKLRESSLMLLDQGLDPLGYEIQS
B6: NUP133 (protein, UniProt Q8R0G9 1-1155)
chain: MFPSVSSPRTPGPGTRRGPLVGIGPTSTPRASRRGLSLGSAVNSPVLFSPAGRRSSVSSRGTPTRIFPHHSISESVNYDVRVFGSSLPVKIMEALTMAEADEQLSVHVDEGGWACLVCTEKLLIWKIAVSPVTKLSVCKELQLPPSDFHGSADLVALSYAATSGEVHSVQAVSVMVATKEGSIRYWPSLAREDTYSDTCVDLGGEKMCRFLTAVQGGSFILSSVGSQLVRLIPESSGKIHQHVLPQGQGMLSGIGRRVSSLFGILSPTSDLMLASVLWDRGGSSFYTLTSSNISKWELDDSSEKQVHSWDVHRTLKESITDAVWGSESNYEAIKEGVNIQYLDLKQNCDGLLILAAAWHLGDSPCLVYYSVITVEDNGNQMSDAVTVEVTQYNPPFQSEDLIACRLMVPNFSSQMTYLYMENAVFVCSTGTGKFSLPQEKIVFDTQGDGILGAGSCAGVPILFSRNSGLVSVTPRENVSLLAEDLEESLTSSVGGRGSESMVFETTTKNETVAHEDKTKLLKAAFLQYCRKDLGRAQIMADELFSSHTDLDSDPELDKAVTQISVDLIDDYPASDPRWAESVPQEAPGLSNTSLIILHQLEDKMKAHCLLVDFLHQVGLFRRLSSYPIRGTPMSTRLLLCEHAEKLSAAITLKNHHSRLPDLVNSAILLALNKRECEVPNSLTPADVFFREVSQVDTICECLLEHEEQVLREVALVSQEWAEVAIDVNTVLKDMLQAATHYRLNKSSMYSQEEVLGKEPEYVPWTATSGPSGIRTAVMRQHGIILKMVYPQADSKLRNVVMEQLVALIDCFLDSYVSQLKSLEKSSDQERYSSLEVEYLQKRSELLSPLLTLGQYPWAASLAEKYCDFDILVQMCEQTDNQARLQRYMTQFADQNFSDFLFRWYLEKGKRGKLLSQPISQHGQLANFLQAHEHLSWLHEINSQELEKAHTTLLGLANMETRYFAKKKTLLGLSKLAALASDISEDRLQEKIEAMAEQERFLLHQETLPEQLLTERQLSLSAMPVLTAPQLISLYICDENRRANEYDFKKALDLLEYIDEEEDVSIDDLKLEILCRALQRDDWSGSDGKDDPIEVSKDSVFVKILQKLIKDGIQLSEYLPEVTDLLRAEQLGSLKSNSYFEFVLKANYEYYVQGQM

Biological target: T1, biotin-tagged XPF (mouse (endogenous knock-in in MEFs))
Experiment: affinity purification with mass spectrometry

Binder | binding
B1 | binds
B2 | binds
B3 | binds
B4 | binds
B5 | binds
B6 | binds

No constants are given. Whether binding was seen depends on the method and setting. Binding seen in cells or lysates may run through a third protein. Here binding means that the protein was enriched with, or labelled near, the bait; the list need not be complete. Tags and fused reporters may be left off the sequences shown.
